Data as given in publication PMC2908540.

T1: CRTR-1 (mouse) (UniProt Q3UNW5)
T1 sequence: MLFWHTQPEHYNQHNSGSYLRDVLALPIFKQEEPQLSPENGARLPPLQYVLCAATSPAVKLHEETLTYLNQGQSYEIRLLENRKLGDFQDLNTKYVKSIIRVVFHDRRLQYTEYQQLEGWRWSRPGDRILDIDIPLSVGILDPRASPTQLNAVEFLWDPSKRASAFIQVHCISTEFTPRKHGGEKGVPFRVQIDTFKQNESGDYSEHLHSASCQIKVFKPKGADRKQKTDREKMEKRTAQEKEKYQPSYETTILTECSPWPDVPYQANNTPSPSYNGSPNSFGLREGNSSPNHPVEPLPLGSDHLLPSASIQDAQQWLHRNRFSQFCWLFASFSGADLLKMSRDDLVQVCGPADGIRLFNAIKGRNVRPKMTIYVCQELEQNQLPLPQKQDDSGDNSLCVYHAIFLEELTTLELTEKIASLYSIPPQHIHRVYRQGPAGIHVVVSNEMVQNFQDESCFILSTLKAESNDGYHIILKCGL

B1: CRTR-1 (protein, UniProt Q3UNW5 1-479)
chain: T1 sequence

Tests used:
CRTR-1 (mouse) = biological target: T1, CRTR-1 (mouse); assay: co-IP; reciprocal: HEK293T co-transfected with CRTR-1 and a FLAG-tagged CP2 family member; whole cell lysate precipitated with anti-CRTR-1 antibody and protein-A agarose, 4°C; blotted with anti-FLAG (Figure 3B)
FLAG-NF2d9 (mouse) [1] = assay: native gel or EMSA; nuclear extracts of HEK293T over-expressing CRTR-1 and a CP2 family member, FAM-labelled alpha-globin CP2 response element probe, 4% native polyacrylamide gel, room temperature; heteromer seen as a complex of intermediate mobility on DNA, super-shift with anti-CRTR-1
FLAG-NF2d9 (mouse) [2] = assay: co-IP; HEK293T co-transfected with CRTR-1 and a FLAG-tagged CP2 family member; whole cell lysate (50 mM Tris-HCl pH 7.5, 150 mM NaCl, 10% glycerol, 1% Triton X-100, 10 mM EDTA) precipitated with anti-FLAG M2 and protein-A agarose, 4°C; blotted with anti-CRTR-1 (Figure 3A)

Row | Molecule | binding (CRTR-1 (mouse)) | binding (FLAG-NF2d9 (mouse) [1]) | binding (FLAG-NF2d9 (mouse) [2])
1 | FLAG-NF2d9 (mouse) | binds |  | 
2 | B1 |  | binds | binds

These are yes or no findings as the source states them, for the method shown. Binding calls can cover weak binding; strength is not graded here. For part of these data: In cells and extracts the contact can be indirect.
